# From publication PMC11432330, “Novel Drug-like HsrA Inhibitors Exhibit Potent Narrow-Spectrum Antimicrobial Activities against Helicobacter pylori” (International Journal of Molecular Sciences, 2024)
# Further values from the same series stand in other lists.
# Test system: H. pylori 26695
# Assay: In vivo inhibition of HsrA: RNA-Seq transcriptomic analysis of exposed cells
# Type: cell-based, Helicobacter pylori
# Procedure: Bacterial growth from three blood agar plates of H. pylori ATCC 700392 (aka 26695) incubated for 48 h at 37 °C under microaerobic conditions was aseptically resuspended in BHI + FBS and adjusted to 10^7 CFU/mL. BHI broth cultures were incubated microaerobically at 37 °C for 24 h. […] At this time, bacterial growth was stopped by adding 1.5 mL ice-cold RNA stop solution (95% absolute ethanol, 5% acid-buffered phenol) and subsequently incubated on ice. Control samples were exposed to the same amount of DMSO instead of the inhibitor. Helicobacter cells from all samples were harvested by centrifugation (4000 rpm at 4 °C for 10 min), then the pellets were quickly frozen by immersion in liquid nitrogen and stored at −80 °C.
# RNA-Seq analysis was performed by GENEWIZ (Azenta Life Sciences, Leipzig, Germany). Frozen cell pellets from two biological replicates of each treatment condition were properly submitted to GENEWIZ in dry ice. RNA-Seq libraries were prepared according to standard protocols via rRNA depletion, RNA fragmentation and random priming, reverse transcription, 5’-phosphorylation and dA-tailing of cDNAs, adaptor ligation, and PCR enrichment. Once the quality of each library was confirmed, they were sequenced on an Illumina NovaSeq 6000 (Illumina, San Diego, CA, USA) with 150-bp paired-ends. Raw sequence reads were filtered to remove possible adapter sequences and nucleotides with poor quality using Trimmomatic v.0.36 [105]. The trimmed reads were subsequently mapped to the H. pylori strain 26695 reference genome NC_000915.1 available on NCBI, by using the Bowtie2 aligner v.2.2.6 [106]. Unique gene hit counts were calculated by using featureCounts from the Subread package v.1.5.2. Only unique reads that fell within the gene regions were counted. Using DESeq2 [108], a comparison of the gene expression between the control and treated groups of samples was performed. The Wald test was used to generate p-values and log2 fold changes. Genes with an adjusted p-value < 0.05 and absolute log2 fold change >1 were considered as differentially expressed genes (DEGs) for each comparison. The RNA-Seq data generated in this study have been deposited in ArrayExpress with the accession number E-MTAB-14255.
smiles,measurement,setting,value
"NC(=NOC(=O)Nc1ccc(Cl)cc1)c1csc([N+](=O)[O-])c1 [Ligand V, N′-{[(4-chloroanilino)carbonyl]}oxy-5-nitrothiophene-3-carboximidamide]",log2 Fold Change,"gene HP1498, exposed to lethal concentration of V vs control",-1.343
same,log2 Fold Change,"gene HP1502, exposed to lethal concentrations of V vs control",0.636
same,log2 Fold Change,"gene HP1503, exposed to lethal concentrations of V vs control",0.639
same,log2 Fold Change,"gene HP1506, exposed to lethal concentrations of V vs control",0.739
same,log2 Fold Change,"gene HP1507, exposed to lethal concentrations of V vs control",0.657
same,log2 Fold Change,"gene HP1508, exposed to lethal concentrations vs control",-0.031
same,log2 Fold Change,"gene HP1509, exposed to lethal concentrations vs control",0.053
same,log2 Fold Change,"gene HP1511, exposed to lethal concentrations vs control",-0.819
same,log2 Fold Change,"gene HP1516, exposed to lethal concentrations of V vs control",0.660
same,log2 Fold Change,"gene HP1517, exposed to lethal concentrations vs control",1.065
same,log2 Fold Change,"gene HP1523, exposed to lethal concentrations of V vs control",0.993
same,log2 Fold Change,"gene HP1524, exposed to lethal concentration of V vs control",-2.821
same,log2 Fold Change,"gene HP1525, exposed to lethal concentrations vs control",-0.713
same,log2 Fold Change,"gene HP1527, exposed to lethal concentrations of V vs control",0.743
same,log2 Fold Change,"gene HP1530, exposed to lethal concentration of V vs control",-0.933
same,log2 Fold Change,"gene HP1531, exposed to lethal concentrations vs control",-0.859
same,log2 Fold Change,"gene HP1532, exposed to lethal concentrations vs control",0.041
same,log2 Fold Change,"gene HP1534, exposed to lethal concentrations vs control",0.066
same,log2 Fold Change,"gene HP1535, exposed to lethal concentrations vs control",0.128
same,log2 Fold Change,"gene HP1541, exposed to lethal concentrations of V vs control",0.721
same,log2 Fold Change,"gene HP1542, exposed to lethal concentrations vs control",-0.764
same,log2 Fold Change,"gene HP1543, exposed to lethal concentrations of V vs control",0.617
same,log2 Fold Change,"gene HP1544, exposed to lethal concentration of V vs control",-0.949
same,log2 Fold Change,"gene HP1545, exposed to lethal concentration of V vs control",-1.535
same,log2 Fold Change,"gene HP1548, exposed to lethal concentrations vs control",0.090
same,log2 Fold Change,"gene HP1553, exposed to lethal concentrations of V vs control",0.791
same,log2 Fold Change,"gene HP1560, exposed to lethal concentrations of V vs control",0.975
same,log2 Fold Change,"gene HP1561, exposed to lethal concentrations of V vs control",0.716
same,log2 Fold Change,"gene HP1563, exposed to lethal concentrations of V vs control",0.564
same,log2 Fold Change,"gene HP1565, exposed to lethal concentrations vs control",-0.029
same,log2 Fold Change,"gene HP1566, exposed to lethal concentration of V vs control",-1.368
same,log2 Fold Change,"gene HP1568, exposed to lethal concentrations vs control",-0.016
same,log2 Fold Change,"gene HP1570, exposed to lethal concentrations vs control",-0.103
same,log2 Fold Change,"gene HP1571, exposed to lethal concentrations vs control",-0.681
same,log2 Fold Change,"gene HP1575, exposed to lethal concentrations vs control",-0.053
same,log2 Fold Change,"gene HP1578, exposed to lethal concentration of V vs control",-1.307
same,log2 Fold Change,"gene HP1579, exposed to lethal concentration of V vs control",-1.547
same,log2 Fold Change,"gene HP1582, exposed to lethal concentrations of V vs control",0.892
same,log2 Fold Change,"gene HP1588, exposed to lethal concentrations vs control",1.118
same,log2 Fold Change,"gene HP1590, exposed to lethal concentration of V vs control",-1.429
same,log2 Fold Change,"gene HPrrnA5S, exposed to lethal concentrations vs control",2.552
same,log2 Fold Change,"gene HPrrnA23S, exposed to lethal concentrations vs control",3.014
same,log2 Fold Change,"gene HPrrnB5S, exposed to lethal concentrations vs control",2.026
same,log2 Fold Change,"gene HPrrnB16S, exposed to lethal concentrations vs control",3.934
same,log2 Fold Change,"gene HPrrnB23S, exposed to lethal concentrations vs control",2.968
same,log2 Fold Change,"gene HPrrnC5S, exposed to lethal concentrations vs control",2.584
same,log2 Fold Change,"gene ackA, exposed to lethal concentrations vs control",0.076
same,log2 Fold Change,"gene acpP, exposed to lethal concentration of V vs control",-1.158
same,log2 Fold Change,"gene alaS, exposed to lethal concentrations of V vs control",1.000
same,log2 Fold Change,"gene algC, exposed to lethal concentrations vs control",-0.743
same,log2 Fold Change,"gene amiE, exposed to lethal concentrations vs control",1.692
same,log2 Fold Change,"gene amiF, exposed to lethal concentrations vs control",1.404
same,log2 Fold Change,"gene argS, exposed to lethal concentrations vs control",-0.097
same,log2 Fold Change,"gene aroE, exposed to lethal concentrations vs control",-0.061
same,log2 Fold Change,"gene aroK, exposed to lethal concentrations vs control",-0.086
same,log2 Fold Change,"gene aspA, exposed to lethal concentrations vs control",1.276
same,log2 Fold Change,"gene aspS, exposed to lethal concentrations vs control",-0.073
same,log2 Fold Change,"gene atpC, exposed to lethal concentrations vs control",0.044
same,log2 Fold Change,"gene carB, exposed to lethal concentrations vs control",0.067
same,log2 Fold Change,"gene clpP, exposed to lethal concentrations vs control",-0.759
same,log2 Fold Change,"gene coaD, exposed to lethal concentration of V vs control",-0.928
same,log2 Fold Change,"gene coaE, exposed to lethal concentrations vs control",0.022
same,log2 Fold Change,"gene dapA, exposed to lethal concentrations vs control",-0.116
same,log2 Fold Change,"gene dapF, exposed to lethal concentrations vs control",0.125
same,log2 Fold Change,"gene dcd, exposed to lethal concentrations vs control",0.064
same,log2 Fold Change,"gene def, exposed to lethal concentrations vs control",-0.647
same,log2 Fold Change,"gene dnaE, exposed to lethal concentrations vs control",1.669
same,log2 Fold Change,"gene dnaK, exposed to lethal concentrations vs control",1.705
same,log2 Fold Change,"gene engA, exposed to lethal concentrations vs control",0.104
same,log2 Fold Change,"gene engB, exposed to lethal concentrations vs control",-0.664
same,log2 Fold Change,"gene eno, exposed to lethal concentrations of V vs control",0.634
same,log2 Fold Change,"gene era, exposed to lethal concentrations vs control",-0.691
same,log2 Fold Change,"gene fabG, exposed to lethal concentration of V vs control",-1.077
same,log2 Fold Change,"gene flgA, exposed to lethal concentrations vs control",-0.830
same,log2 Fold Change,"gene flgB, exposed to lethal concentrations of V vs control",0.618
same,log2 Fold Change,"gene flgE, exposed to lethal concentrations of V vs control",0.610
same,log2 Fold Change,"gene flgG, exposed to lethal concentrations vs control",-0.750
same,log2 Fold Change,"gene flgK, exposed to lethal concentrations of V vs control",0.565
same,log2 Fold Change,"gene flgL, exposed to lethal concentrations vs control",-0.083
same,log2 Fold Change,"gene fliD, exposed to lethal concentrations vs control",1.582
same,log2 Fold Change,"gene fliF, exposed to lethal concentration of V vs control",-0.921
same,log2 Fold Change,"gene fliH, exposed to lethal concentrations vs control",-0.699
same,log2 Fold Change,"gene fliI, exposed to lethal concentrations of V vs control",0.528
same,log2 Fold Change,"gene fliL, exposed to lethal concentrations vs control",0.078
same,log2 Fold Change,"gene fliS, exposed to lethal concentrations of V vs control",0.939
same,log2 Fold Change,"gene fmt, exposed to lethal concentrations vs control",0.084
same,log2 Fold Change,"gene frdB, exposed to lethal concentrations of V vs control",0.586
same,log2 Fold Change,"gene fumC, exposed to lethal concentrations of V vs control",0.878
same,log2 Fold Change,"gene gatA, exposed to lethal concentrations vs control",1.031
same,log2 Fold Change,"gene gatB, exposed to lethal concentrations vs control",-0.066
same,log2 Fold Change,"gene gatC, exposed to lethal concentration of V vs control",-0.931
same,log2 Fold Change,"gene gidA, exposed to lethal concentrations of V vs control",0.812
same,log2 Fold Change,"gene gidB, exposed to lethal concentration of V vs control",-1.735
same,log2 Fold Change,"gene glk, exposed to lethal concentrations vs control",1.500
same,log2 Fold Change,"gene glmU, exposed to lethal concentrations of V vs control",0.554
same,log2 Fold Change,"gene gltA, exposed to lethal concentrations of V vs control",0.877
same,log2 Fold Change,"gene glyQ, exposed to lethal concentrations of V vs control",0.861
same,log2 Fold Change,"gene glyS, exposed to lethal concentrations of V vs control",0.969
same,log2 Fold Change,"gene gpsA, exposed to lethal concentrations of V vs control",0.711
same,log2 Fold Change,"gene greA, exposed to lethal concentrations of V vs control",1.007
same,log2 Fold Change,"gene groEL, exposed to lethal concentrations vs control",1.455
same,log2 Fold Change,"gene hemA, exposed to lethal concentrations vs control",-0.784
same,log2 Fold Change,"gene hemD, exposed to lethal concentration of V vs control",-1.159
same,log2 Fold Change,"gene hemE, exposed to lethal concentrations vs control",-0.131
same,log2 Fold Change,"gene hemH, exposed to lethal concentrations vs control",-0.866
same,log2 Fold Change,"gene hisS, exposed to lethal concentrations of V vs control",0.658
same,log2 Fold Change,"gene hslU, exposed to lethal concentrations vs control",0.132
same,log2 Fold Change,"gene htpG, exposed to lethal concentrations vs control",1.030
same,log2 Fold Change,"gene ileS, exposed to lethal concentrations of V vs control",0.652
same,log2 Fold Change,"gene infA, exposed to lethal concentration of V vs control",-2.208
same,log2 Fold Change,"gene infC, exposed to lethal concentration of V vs control",-1.016
same,log2 Fold Change,"gene ispG, exposed to lethal concentrations of V vs control",0.969
same,log2 Fold Change,"gene ispH, exposed to lethal concentrations of V vs control",0.520
same,log2 Fold Change,"gene leuS, exposed to lethal concentrations of V vs control",0.562
same,log2 Fold Change,"gene ligA, exposed to lethal concentrations of V vs control",0.908
same,log2 Fold Change,"gene lpxC, exposed to lethal concentrations vs control",1.015
same,log2 Fold Change,"gene lpxD, exposed to lethal concentrations vs control",0.035
same,log2 Fold Change,"gene lspA, exposed to lethal concentrations vs control",0.075
same,log2 Fold Change,"gene lysS, exposed to lethal concentration of V vs control",-1.055
